# Primary screen of a compound library

Amino acid sequences for entries named in this document (tags omitted).
UniProt P9WFT3, whole entry: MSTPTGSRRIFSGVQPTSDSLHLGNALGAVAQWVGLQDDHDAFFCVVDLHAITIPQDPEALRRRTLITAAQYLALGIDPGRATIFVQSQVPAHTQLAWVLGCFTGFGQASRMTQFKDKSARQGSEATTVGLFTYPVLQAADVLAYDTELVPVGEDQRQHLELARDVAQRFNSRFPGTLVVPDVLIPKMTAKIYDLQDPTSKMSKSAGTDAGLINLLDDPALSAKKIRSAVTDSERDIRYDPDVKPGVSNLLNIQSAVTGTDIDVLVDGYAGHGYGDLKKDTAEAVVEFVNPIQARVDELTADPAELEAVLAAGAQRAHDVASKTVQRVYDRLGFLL
UniProt P9WPC5, whole entry: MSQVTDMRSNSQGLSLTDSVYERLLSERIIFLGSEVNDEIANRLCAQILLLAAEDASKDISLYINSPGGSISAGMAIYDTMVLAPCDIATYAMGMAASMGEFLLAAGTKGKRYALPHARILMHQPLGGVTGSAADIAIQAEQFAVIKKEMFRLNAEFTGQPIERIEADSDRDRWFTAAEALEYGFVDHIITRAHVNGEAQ
UniProt P9WPC3, whole entry partner: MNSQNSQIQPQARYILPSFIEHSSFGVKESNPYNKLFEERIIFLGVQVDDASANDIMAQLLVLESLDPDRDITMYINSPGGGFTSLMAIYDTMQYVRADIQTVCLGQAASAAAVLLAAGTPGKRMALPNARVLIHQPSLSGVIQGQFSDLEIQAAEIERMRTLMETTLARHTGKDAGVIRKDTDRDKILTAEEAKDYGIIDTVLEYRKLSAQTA

Each number is a percent effect as filed. The record does not define 0% and 100%; most values in the screen are far below 50% and negative numbers occur (in some assays of this library far below -100). Compounds were drawn at random from those tested, without regard to their results.

A: 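Enzyme assay of tryptophanyl-tRNA synthetase; the read-out is not stated. Target: Tryptophan-tRNA ligase, Mycobacterium tuberculosis (UniProt P9WFT3). Compounds at 10 µM. Higher most likely means stronger inhibition; the record gives no direction and few retests gave an IC50. About 65,000 compounds were tested under these conditions; 0.098% (about 64) showed 50% or more at least once.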
B: 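ClpP1P2, Mycobacterium tuberculosis (UniProt P9WPC5 and UniProt P9WPC3). Protease assay of ClpP1P2, read by the AMC dye that it sets free. Compounds at 50 µM. Higher reads as stronger inhibition, judged from the few compounds that gave an IC50. Most other retested compounds had strongly negative values. About 69,000 compounds were tested under these conditions; 0.015% (about 10) showed 50% or more at least once.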

Cc1ccc(-c2nc(CNC3CCc4ncnn4C3)co2)c(C)c1 (stereo unspecified) read A: 5.995%; B: 5.181%.
CCn1c(C)nnc1CN(C)C1CCN(Cc2nccn2C)C1 (stereo unspecified) read A: 1.341%; B: 0.743%.
Cc1nc(C2(NCc3cccc(F)c3F)CCCCC2)no1 read A: -6.914%; B: -0.1316%.
Cc1nc(CN2CCCC(c3cc(C(F)(F)F)[nH]n3)C2)cs1 (stereo unspecified) read A: -7.926%; B: -19.52%.
CC(C)(C)c1ncc(C(=O)NCCNS(C)(=O)=O)s1 read A: -2.421%; B: -38.59%.
Fc1ccc2c(c1)nc1n2[C@@H](CNCc2nccs2)COC1 read A: -1.766%; B: -12.56%.
O=C(CCc1nc(C2CC2)no1)c1ccc2c(c1)OCCO2 read A: 0.7424%; B: -7.553%.
CN(C)C(=O)N1CCN(C(=O)C(c2ccccc2F)N(C)C)CC1 (stereo unspecified) read A: -3.223%; B: -1.62%.
O=C(CCc1ccsc1)N1CCC(Cc2ccc(CO)cc2)C1 (stereo unspecified) read A: -4.739%; B: -10.49%.
Cc1cnc(N2CCCC(O)C2)nc1-c1ccnn1C (stereo unspecified) read A: 14.01%; B: -13.15%.
Cn1ccc(C(=O)N(CC(F)F)c2cccc(Cl)c2)cc1=O read A: -4.64%; B: -12.64%.
CS(=O)(=O)NCC(Cc1cccc(F)c1)N1CCNC1=O (stereo unspecified) read A: 1.765%; B: -7.205%.
CN1C(=O)C(c2cccnc2)CC12CCN(Cc1nccs1)CC2 (stereo unspecified) read B: -1.771%.
Cc1noc(C)c1C(=O)N1C[C@@H]2C[C@@H](c3ccncn3)O[C@@H]2C1 read A: 1.569%; B: 0.3581%.
CCc1cn[nH]c1C1CCN(C(=O)c2cc(C(C)=O)c(C)[nH]c2=O)CC1 read A: -5.684%; B: -0.7069%.
Cn1cc(CN2CCCC(CCc3ccc(F)c(F)c3)C2)cn1 (stereo unspecified) read A: 8.793%; B: -1.239%.
Cc1cnn(CC2CCCN2Cc2cc(=O)n3cc(C)ccc3n2)c1 (stereo unspecified) read A: -1.319%; B: -5.403%.
Cc1c(C(=O)N(C)CC(F)(F)F)nnn1-c1ccc(F)cc1 read A: -9.407%; B: -17.57%.
Cc1csc(N2CCCN(C(=O)Cc3ccc(C)s3)CC2)n1 read A: 0.9887%; B: -17.58%.
CC(=O)N1CCCN(C(=O)NCc2cccnc2OC(C)C)CC1 read A: -8.442%; B: -10.26%.
O=C(c1ccc(Cl)cc1)N1CCC(N2CCOC2=O)CC1 read A: -0.2593%; B: 4.653%.
CC(=O)Nc1nc(C(=O)NCCOc2cccc(F)c2)cs1 read A: -0.2349%; B: -2.16%.
COc1cccc(OCC2CCCN(C(=O)CCc3cc(O)no3)C2)c1 (stereo unspecified) read A: -4.418%; B: -0.04499%.
CCc1cnc(N)nc1N[C@@H](C)c1ncccc1C read A: -2.039%; B: -7.364%.
Cn1cc(C(=O)Nc2cc(F)ccc2OCC2CCCO2)ccc1=O (stereo unspecified) read A: -5.511%; B: -15.24%.
COc1cccc(CNc2nc(N3CCOCC3)ns2)c1OC read A: -0.000009%; B: 18.96%.
CCCN(Cc1ccccc1O)C(=O)Nc1cnn(CCOC)c1 read A: 5.751%; B: -11.74%.
CN(c1ncccc1CNC(=O)c1cscn1)C1CCCCC1 read A: -3.709%; B: -9.503%.
CSCC(C)(O)CNc1cccc(F)c1C#N (stereo unspecified) read A: -4.425%; B: -2.525%.
CN(C)CC(C)(C)Cn1cnc(-c2ccccc2)c1-c1ncc[nH]1 read A: 1.876%; B: 24.96%.
Cc1nc[nH]c1CN1CCN(C2CCOCC2)CC(C(N)=O)C1 (stereo unspecified) read B: -17.19%.
COc1cc(CSc2nnc(C)n2CC(N)=O)ccc1SC read A: 7.841%; B: -11.64%.
Cc1cc(C)n(-c2ccc(C(=O)NCc3cncn3CC(C)C)cc2)n1 read A: -1.927%; B: -5.243%.
Nc1cc(CCC2CN(Cc3ccc4cc[nH]c4c3)CCO2)ccn1 (stereo unspecified) read B: -6.436%.
CC(C(=O)Nc1ccc(N2CCCCC2)nc1)n1ccnc1 (stereo unspecified) read A: 17.44%; B: 4.353%.
CC(C)COc1ccccc1CN(C)C(=O)c1cc(=O)[nH]c(=O)[nH]1 read A: 0.9449%; B: -20.08%.
COc1ccc(SC(C)C(=O)N2CCC(NC(=O)C3CC3)CC2)cc1 (stereo unspecified) read A: -6.307%; B: 1.871%.
Clc1cccc(-n2cnnn2)c1N1CCOCC1 read A: -2.825%; B: -7.737%.
O=C(c1scc2c1OCCO2)N1CCOC(Cc2cccc(F)c2)C1 (stereo unspecified) read A: 0.1575%; B: -26.78%.
c1cc(C2CCCN2CC2CCCCC2)n[nH]1 (stereo unspecified) read A: -6.635%; B: -2.13%.
Cc1nn(C)c(N(C)C)c1CNCc1ccc(N(C)C)nc1 read A: -2.902%; B: 1.087%.
Cn1ccnc1CN1CCC2(COCCN(Cc3ccsc3)C2)C1 (stereo unspecified) read A: 0.58%; B: -1.347%.
O=C(CC1CN(Cc2ccccc2)CCO1)Nc1ccccc1F (stereo unspecified) read A: -13.7%; B: -1.824%.
Cc1nn(C)cc1S(=O)(=O)NCC(c1ccccc1Cl)N1CCCC1 (stereo unspecified) read A: -0.651%; B: -8.849%.
Cc1n[nH]c(C)c1C1CCCN1C(=O)c1cc(Br)c[nH]1 (stereo unspecified) read A: 10.06%; B: -21.11%.
OC(CN1CCOCC1)c1cc(Cl)ccc1Cl (stereo unspecified) read A: 41.77%; B: -15.68%.

The values are deposited in ChEMBL (CHEMBL3988442, “University of Dundee, Small-Polar-MMV Screening Library” (2021)).